Measured values from publication PMC7316825.

Amino acid sequences for entries named in this document (tags omitted).
UniProt Q07065: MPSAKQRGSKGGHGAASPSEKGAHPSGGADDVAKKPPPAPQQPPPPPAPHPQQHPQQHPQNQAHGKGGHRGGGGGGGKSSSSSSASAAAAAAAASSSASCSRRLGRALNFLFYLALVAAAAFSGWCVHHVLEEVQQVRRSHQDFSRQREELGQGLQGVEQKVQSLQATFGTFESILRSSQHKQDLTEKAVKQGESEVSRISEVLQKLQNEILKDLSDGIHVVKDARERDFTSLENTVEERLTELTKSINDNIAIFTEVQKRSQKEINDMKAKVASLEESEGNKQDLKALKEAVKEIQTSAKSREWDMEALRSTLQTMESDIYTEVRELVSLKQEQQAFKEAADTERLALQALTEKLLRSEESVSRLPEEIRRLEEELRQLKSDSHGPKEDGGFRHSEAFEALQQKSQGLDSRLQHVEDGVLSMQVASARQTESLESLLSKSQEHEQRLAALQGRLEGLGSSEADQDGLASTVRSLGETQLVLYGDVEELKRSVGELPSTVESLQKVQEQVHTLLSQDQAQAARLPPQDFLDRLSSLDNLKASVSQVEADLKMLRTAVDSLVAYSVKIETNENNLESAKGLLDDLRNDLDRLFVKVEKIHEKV

Molecular target: T1, Retinol-binding protein 1 (UniProt P09455)
T1 sequence: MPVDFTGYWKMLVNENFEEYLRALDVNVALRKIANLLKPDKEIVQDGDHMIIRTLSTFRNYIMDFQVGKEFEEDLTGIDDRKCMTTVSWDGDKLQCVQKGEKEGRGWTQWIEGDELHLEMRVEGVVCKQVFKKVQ
Experiment: affinity purification with mass spectrometry; Co-IP followed by MS on the lysate of SCC15 cells transfected with RBP1 or CKAP4

How did the binding turn out when “Cytoskeleton-associated protein 4 (from UniProt Q07065 1-602)” was run?
Its binding is “binds”.

No constants are given. Whether binding was seen depends on the method and setting. Binding seen in cells or lysates may run through a third protein. Here binding means that the protein was enriched with, or labelled near, the bait; the list need not be complete.
